According to publication PMC4624675:
These are yes or no findings as the source states them, for the method shown. For part of these data: Binding calls can cover weak binding; strength is not graded here. For part of these data: Where a sequence is shown, tags or fusion partners need not be part of it. For part of these data: Binding seen in cells or lysates may run through a third protein.

Amino acid sequences for entries named in this document (tags omitted). A change or cut given only in a name is not applied to a line headed by its entry.
UniProt P26358: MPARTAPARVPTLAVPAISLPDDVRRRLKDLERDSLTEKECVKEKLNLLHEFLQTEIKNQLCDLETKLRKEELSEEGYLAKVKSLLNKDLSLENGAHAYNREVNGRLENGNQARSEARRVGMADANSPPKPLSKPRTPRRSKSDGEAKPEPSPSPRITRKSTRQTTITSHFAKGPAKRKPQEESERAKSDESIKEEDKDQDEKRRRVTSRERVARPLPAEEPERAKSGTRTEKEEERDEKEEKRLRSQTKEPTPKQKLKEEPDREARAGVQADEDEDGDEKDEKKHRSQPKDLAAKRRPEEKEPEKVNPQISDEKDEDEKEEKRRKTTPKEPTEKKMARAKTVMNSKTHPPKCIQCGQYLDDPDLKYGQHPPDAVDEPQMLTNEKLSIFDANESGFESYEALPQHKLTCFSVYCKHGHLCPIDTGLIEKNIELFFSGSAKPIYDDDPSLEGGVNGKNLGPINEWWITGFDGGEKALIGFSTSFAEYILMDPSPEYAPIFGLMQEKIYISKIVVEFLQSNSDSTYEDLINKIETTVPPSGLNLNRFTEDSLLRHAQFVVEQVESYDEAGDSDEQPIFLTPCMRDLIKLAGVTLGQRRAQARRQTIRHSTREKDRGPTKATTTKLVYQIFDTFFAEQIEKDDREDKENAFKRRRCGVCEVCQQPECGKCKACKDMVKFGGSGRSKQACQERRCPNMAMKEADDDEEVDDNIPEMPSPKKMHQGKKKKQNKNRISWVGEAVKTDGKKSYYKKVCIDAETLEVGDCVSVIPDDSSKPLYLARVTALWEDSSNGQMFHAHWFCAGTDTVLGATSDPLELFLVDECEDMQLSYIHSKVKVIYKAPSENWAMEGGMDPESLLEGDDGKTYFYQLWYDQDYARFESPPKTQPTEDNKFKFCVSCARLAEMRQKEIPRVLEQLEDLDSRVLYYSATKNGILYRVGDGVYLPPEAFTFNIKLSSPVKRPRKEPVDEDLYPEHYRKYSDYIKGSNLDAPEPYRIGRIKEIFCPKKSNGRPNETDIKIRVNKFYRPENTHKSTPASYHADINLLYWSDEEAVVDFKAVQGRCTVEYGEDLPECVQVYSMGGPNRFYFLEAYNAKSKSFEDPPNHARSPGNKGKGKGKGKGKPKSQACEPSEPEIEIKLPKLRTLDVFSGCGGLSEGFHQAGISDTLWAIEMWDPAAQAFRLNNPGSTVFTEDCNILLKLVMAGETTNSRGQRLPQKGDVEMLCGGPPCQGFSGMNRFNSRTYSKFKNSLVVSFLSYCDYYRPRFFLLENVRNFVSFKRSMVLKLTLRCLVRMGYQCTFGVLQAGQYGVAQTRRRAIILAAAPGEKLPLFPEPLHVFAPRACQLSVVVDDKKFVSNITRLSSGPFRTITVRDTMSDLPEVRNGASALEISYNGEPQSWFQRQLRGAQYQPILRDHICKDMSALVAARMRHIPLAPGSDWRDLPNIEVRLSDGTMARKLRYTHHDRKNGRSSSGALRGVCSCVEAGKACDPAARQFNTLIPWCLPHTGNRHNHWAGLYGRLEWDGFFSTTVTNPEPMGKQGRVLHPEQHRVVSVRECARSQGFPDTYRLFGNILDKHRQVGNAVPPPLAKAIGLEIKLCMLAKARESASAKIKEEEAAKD
UniProt Q2YD98: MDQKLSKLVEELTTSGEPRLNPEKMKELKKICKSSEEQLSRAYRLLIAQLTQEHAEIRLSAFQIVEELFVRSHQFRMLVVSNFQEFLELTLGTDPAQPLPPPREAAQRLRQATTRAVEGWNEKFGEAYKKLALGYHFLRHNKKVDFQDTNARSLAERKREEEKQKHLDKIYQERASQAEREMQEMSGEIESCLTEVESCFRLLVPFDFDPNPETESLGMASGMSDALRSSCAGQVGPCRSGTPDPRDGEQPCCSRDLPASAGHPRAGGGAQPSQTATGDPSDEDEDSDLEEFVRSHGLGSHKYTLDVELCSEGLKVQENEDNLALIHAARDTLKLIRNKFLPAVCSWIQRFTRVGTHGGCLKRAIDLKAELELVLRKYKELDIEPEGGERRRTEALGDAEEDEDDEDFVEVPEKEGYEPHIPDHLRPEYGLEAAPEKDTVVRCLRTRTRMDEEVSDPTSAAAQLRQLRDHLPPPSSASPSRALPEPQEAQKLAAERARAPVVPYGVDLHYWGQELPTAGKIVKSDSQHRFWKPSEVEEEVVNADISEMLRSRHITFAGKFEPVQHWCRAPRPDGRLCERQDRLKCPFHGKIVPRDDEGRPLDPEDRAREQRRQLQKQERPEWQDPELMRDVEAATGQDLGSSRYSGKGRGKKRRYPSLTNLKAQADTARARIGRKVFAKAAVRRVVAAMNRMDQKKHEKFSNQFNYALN
UniProt Q93009: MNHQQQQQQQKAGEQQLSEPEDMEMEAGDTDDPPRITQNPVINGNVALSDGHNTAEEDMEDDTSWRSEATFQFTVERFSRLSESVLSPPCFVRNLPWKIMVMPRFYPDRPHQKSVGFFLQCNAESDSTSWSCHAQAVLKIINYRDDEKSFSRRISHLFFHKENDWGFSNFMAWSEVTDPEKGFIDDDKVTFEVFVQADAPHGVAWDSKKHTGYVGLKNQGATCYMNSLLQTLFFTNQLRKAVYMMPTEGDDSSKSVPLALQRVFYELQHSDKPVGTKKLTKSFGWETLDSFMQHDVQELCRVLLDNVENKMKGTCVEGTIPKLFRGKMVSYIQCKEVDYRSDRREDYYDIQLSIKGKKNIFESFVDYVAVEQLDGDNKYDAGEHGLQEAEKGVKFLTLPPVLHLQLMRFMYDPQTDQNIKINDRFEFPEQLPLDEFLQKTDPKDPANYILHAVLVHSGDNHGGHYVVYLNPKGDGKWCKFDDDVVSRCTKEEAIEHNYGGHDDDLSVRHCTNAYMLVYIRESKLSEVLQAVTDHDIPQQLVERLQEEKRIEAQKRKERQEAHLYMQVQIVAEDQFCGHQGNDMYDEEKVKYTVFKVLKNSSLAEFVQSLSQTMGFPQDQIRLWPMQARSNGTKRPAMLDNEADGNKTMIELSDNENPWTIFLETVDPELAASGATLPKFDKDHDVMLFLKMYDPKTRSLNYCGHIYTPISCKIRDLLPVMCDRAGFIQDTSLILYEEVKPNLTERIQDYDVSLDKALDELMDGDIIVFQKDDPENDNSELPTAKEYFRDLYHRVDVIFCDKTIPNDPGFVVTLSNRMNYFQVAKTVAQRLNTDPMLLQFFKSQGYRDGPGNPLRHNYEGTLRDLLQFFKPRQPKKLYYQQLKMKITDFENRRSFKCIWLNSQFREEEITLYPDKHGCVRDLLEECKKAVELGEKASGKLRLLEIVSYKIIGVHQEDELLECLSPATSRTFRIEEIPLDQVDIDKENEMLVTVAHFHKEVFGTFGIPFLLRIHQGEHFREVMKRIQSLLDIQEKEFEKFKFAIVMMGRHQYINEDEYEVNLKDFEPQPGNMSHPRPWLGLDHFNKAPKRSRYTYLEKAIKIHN

Experiments:
FLAG-tagged DNMT1 = FLAG-tagged DNMT1 (UniProt P26358); assay: co-IP; HEK293T cells transiently co-transfected with FLAG-tagged proteins and GFP-tagged USP7 (wild-type and mutants), immunoprecipitation, immunoblotting; which tag was precipitated is not told
FLAG-tagged MCM4 = molecular target: T1, FLAG-tagged MCM4 (UniProt P33991); assay: as above
T1 sequence: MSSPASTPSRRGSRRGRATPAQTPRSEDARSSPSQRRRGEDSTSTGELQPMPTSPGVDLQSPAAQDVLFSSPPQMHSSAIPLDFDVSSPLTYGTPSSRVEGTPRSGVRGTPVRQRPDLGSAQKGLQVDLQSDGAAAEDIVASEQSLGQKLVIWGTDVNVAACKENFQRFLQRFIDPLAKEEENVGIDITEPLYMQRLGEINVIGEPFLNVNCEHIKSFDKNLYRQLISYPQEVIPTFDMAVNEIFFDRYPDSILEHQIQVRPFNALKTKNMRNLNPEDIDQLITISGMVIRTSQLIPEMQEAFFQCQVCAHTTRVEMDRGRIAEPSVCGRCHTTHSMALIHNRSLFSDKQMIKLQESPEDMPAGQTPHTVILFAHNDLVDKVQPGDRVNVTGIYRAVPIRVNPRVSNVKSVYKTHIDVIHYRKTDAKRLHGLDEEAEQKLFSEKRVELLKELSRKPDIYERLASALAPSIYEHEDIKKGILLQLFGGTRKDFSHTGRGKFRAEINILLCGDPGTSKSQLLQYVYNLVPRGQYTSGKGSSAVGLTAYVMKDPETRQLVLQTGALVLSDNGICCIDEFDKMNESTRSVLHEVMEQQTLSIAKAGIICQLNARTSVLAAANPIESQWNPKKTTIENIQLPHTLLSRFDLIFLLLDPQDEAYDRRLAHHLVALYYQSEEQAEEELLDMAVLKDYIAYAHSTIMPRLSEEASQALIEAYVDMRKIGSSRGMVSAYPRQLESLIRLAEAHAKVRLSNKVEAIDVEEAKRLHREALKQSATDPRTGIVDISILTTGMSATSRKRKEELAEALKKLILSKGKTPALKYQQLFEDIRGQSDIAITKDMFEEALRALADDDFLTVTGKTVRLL

FLAG-tagged MCMBP = molecular target: T2, FLAG-tagged MCMBP (UniProt Q9BTE3); assay: as above
T2 sequence: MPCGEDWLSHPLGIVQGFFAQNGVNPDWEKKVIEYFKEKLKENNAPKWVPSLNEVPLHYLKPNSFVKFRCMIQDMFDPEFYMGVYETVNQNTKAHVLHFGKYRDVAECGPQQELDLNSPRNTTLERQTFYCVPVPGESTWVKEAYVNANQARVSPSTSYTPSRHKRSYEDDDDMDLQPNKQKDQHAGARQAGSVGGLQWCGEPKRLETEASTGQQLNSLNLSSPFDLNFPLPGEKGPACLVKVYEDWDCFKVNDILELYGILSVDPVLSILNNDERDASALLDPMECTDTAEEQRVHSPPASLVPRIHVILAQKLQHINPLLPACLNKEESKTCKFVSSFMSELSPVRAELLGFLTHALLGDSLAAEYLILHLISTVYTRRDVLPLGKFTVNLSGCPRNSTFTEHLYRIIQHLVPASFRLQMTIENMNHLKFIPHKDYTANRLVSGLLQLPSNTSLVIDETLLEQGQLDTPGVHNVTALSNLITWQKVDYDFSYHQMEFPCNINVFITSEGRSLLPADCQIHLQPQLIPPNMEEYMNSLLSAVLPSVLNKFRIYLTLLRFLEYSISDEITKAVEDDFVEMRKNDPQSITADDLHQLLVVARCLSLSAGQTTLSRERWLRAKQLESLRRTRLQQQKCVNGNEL

FLAG-tagged UVSSA = FLAG-tagged UVSSA (UniProt Q2YD98); assay: as above
FLAG-tagged WDR21a = molecular target: T3, FLAG-tagged WDR21a (UniProt Q8WV16); assay: as above
T3 sequence: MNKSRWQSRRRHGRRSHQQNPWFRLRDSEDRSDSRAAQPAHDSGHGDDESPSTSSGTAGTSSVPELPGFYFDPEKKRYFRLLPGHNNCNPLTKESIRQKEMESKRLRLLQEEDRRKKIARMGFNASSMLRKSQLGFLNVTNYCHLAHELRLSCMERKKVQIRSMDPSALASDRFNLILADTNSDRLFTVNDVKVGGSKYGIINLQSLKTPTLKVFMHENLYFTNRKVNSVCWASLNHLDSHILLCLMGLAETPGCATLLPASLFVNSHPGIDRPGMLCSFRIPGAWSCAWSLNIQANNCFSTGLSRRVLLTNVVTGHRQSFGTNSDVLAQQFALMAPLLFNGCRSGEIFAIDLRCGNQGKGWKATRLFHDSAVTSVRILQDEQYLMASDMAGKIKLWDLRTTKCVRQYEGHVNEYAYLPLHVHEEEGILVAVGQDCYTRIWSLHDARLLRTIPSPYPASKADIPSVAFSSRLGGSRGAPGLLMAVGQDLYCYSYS

[1] = molecular target: T4, UHRF1 (642–674) (GST pull-down bait) (human) (UniProt Q96T88); assay: pull-down; GST-tagged peptides incubated with TUD^USP7 (wild type or M1) and immobilized on glutathione resin; bound proteins on SDS-PAGE, Coomassie blue staining; both purified
T4 sequence: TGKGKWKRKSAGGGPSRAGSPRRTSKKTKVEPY

| Substance | binding (FLAG-tagged DNMT1) | binding (FLAG-tagged MCM4) | binding (FLAG-tagged MCMBP) | binding (FLAG-tagged UVSSA) | binding (FLAG-tagged WDR21a) | binding [1] |
| --- | --- | --- | --- | --- | --- | --- |
| GFP-tagged full-length USP7 mutant M1 (M1^USP7-FL, D758A/E759A/E764A) (from UniProt Q93009) (enzyme) | no binding | binds | binds | binds | binds | – |
| C-terminal Tandem UBL domain of human USP7 (TUD^USP7), wild type (domain or fragment) | – | – | – | – | – | binds |
